Results are given in words; binding and its absence hold for the method and conditions named. In cells and extracts the contact can be indirect. Some entries that bind do so weakly or less than the wild type.
Experiments:
[1] = target: LgB-NIX (NIX with Large BiT at its N-terminal end) (UniProt O60238); experiment: split reporter
[2] = target: V5-tagged NIX (V5-NIX), transfected in HeLa.Kyoto cells (UniProt O60238); experiment: co-IP
[3] = target: V5-tagged NIX (V5-NIX), transfected in HeLa.Kyoto cells (UniProt O60238); experiment: proximity ligation
[4] = target: NIXΔTA (NIX deficient in the tail anchor region, residues 188 to 208), NanoBiT fusion (UniProt O60238); experiment: split reporter

Amino acid sequences for entries named in this document (tags omitted). A change or cut given only in a name is not applied to a line headed by its entry.
UniProt O60238: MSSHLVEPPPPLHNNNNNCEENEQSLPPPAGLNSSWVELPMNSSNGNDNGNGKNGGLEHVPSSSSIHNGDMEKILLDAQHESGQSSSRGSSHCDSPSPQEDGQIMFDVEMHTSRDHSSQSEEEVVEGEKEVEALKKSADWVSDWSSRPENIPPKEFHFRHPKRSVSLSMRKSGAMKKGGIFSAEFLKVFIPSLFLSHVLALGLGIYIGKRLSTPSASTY

In the case of “SmB-vIRF-1 (vIRF-1 with Small BiT at its N-terminal end) (from UniProt F5HF68 1-449)”, the binding [1] is reported as “binds”.
For “vIRF-1 F10A, transfected in HeLa.Kyoto cells (from UniProt F5HF68 1-449)”, the binding [2] was “no binding”.
For “vIRF-1 wild type, transfected in HeLa.Kyoto cells (from UniProt F5HF68 1-449)”, the binding [3] was “binds” and the binding [2] was “binds”.
“vIRF-1-SmB (vIRF-1 with Small BiT at its C-terminal end) (from UniProt F5HF68 1-449)” was tested, and the binding [4] was “no binding”.

Source: paper doi:10.1101/506113 (bioRxiv, 2018)
